No constants are given. Whether binding was seen depends on the method and setting. Binding seen in cells or lysates may run through a third protein. A yes stands for co-enrichment or nearness to the bait. Other partners may have been found.
Target: Flag-tagged AKR1B10 (aldo-keto reductase family 1 member B10), wild type (human) (UniProt O60218)
Assay: affinity purification with mass spectrometry; anti-FLAG immunoprecipitation from lysates of HCT116-shAKR1B10 cells stably expressing Flag-AKR1B10 or Flag-vector; SDS-PAGE, in-gel trypsin digestion, LC-MS/MS

Sequences of proteins named here, by UniProt entry; tags and fusion partners are left off.
UniProt O60218: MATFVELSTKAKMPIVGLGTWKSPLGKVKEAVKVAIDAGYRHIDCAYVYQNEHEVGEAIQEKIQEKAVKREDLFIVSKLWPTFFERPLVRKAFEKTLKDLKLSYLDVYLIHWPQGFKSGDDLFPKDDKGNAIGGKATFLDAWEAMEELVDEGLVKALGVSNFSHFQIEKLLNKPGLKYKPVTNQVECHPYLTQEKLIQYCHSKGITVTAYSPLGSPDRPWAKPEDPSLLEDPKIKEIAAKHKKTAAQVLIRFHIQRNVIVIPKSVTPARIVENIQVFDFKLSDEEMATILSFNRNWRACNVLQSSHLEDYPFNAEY
UniProt P67775: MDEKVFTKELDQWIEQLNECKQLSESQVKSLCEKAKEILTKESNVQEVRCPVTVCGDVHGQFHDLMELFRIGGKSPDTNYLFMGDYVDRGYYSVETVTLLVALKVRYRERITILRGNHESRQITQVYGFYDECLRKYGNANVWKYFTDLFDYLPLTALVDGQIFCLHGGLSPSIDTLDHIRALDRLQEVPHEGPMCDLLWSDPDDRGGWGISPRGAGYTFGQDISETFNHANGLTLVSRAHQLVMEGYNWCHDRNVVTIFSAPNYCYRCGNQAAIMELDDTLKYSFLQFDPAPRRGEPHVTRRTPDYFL

endogenous PPP2CA (catalytic subunit of PP2A) (from UniProt P67775 1-309) (enzyme)
binding: binds

From PMC12372902
